# Assay results reported in the supplement of paper PMC10338343.
# ± gives the standard deviation. This is a selection; strong and weak results do not stand in their true shares. Many entries were measured with a wide error.
# Tested on: MIWI (PIWIL1) piRISC loaded with L1MC piRNA (30 nt)
# Assay: pre-steady-state target cleavage rate (min^-1); MIWI and MILI are mouse PIWI proteins and EfPiwi is from a freshwater sponge; tags in brackets are library labels; higher = faster piRNA-guided slicing of the target
# Conditions: guide: L1MC piRNA 5'p-UAACUAAAUACUAUGCAAGCUGUAGGUCCU; auxiliary factor: none (no GTSF1)
# Method in brief: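 A transcribed, DNA-blocked target RNA library […] was incubated at 33 °C for 0–8 or 0–960 min with 1 nM active affinity-purified piRISC carrying one synthetic guide, in HEPES–potassium acetate buffer with or without 500 nM GTSF1 partner protein. Uncleaved targets were then sequenced and normalised to depth and to weakly complementary targets. Data from three trials were pooled, with k3 capped at 0.0001 min^-1, and a burst-and-steady-state fit yielded the pre-steady-state cleavage rate.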
# 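Also: 1 nM active piRISC with 0.1 nM target library at 33 °C single turnover.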
row,Sequence,pre-steady-state target cleavage rate
1,UCCUGGAUGUCGAAGCUUAGAAUUUAGUUA,0.000521 ± 0.014
2,UCCACCUACAGCUUGCAAUCUAUUUAGAAA,0.000287 ± 0.0089
3,UCCUGCUACAGCUUGCAUAGUAAAAUCAAA [g9:g25:cont:t1A],0.000402 ± 0.014
4,UCCUGGAUCACGAUGCAUAGUAUUUAGUAA,0.00151 ± 0.0036
5,UGGACCUACAGCUUGCUAAGUAUUUAGAAA,0.000406 ± 0.0068
6,UCCACCUACAGCUUCGAUAGUAUUUUCAAA,0.000154 ± 0.019
7,AGGACCUACAGCUUGCAUACAUUUUAGUAA,0.000893 ± 0.0097
8,UCGACCUACAGCUUCGAUAGUAUUUACAAA,0.000813 ± 0.0076
9,UCCACCUACACGUUGCAUAGUAUUUAGAAA,0.000486 ± 0.0054
10,UGGACCUAGUCCUUGCAUAGUAUUUAGAAA,0.00158 ± 0.0024
11,UGGACCUACAGGAAGCAUAGUAUUUUCAAA,0.000632 ± 0.0071
12,AGGACCUACAGCAUCCAUAGUAUUUAGUUA,0.00243 ± 0.0027
13,UCGACCUACAGCUUGCAUAGUAUAUAGAAA,0.00238 ± 0.0038
14,UCCUGGAUGUCGAACGAUAGUAUUUUCUUA,0.000163 ± 0.029
15,UCCUGGAUGUCGUUGCAUAGUAUUUAAGUUA,0.00274 ± 0.0037
16,AGGACCUACAGCAAGCAUAGUAUUUACAAA,0.00134 ± 0.0049

# An excerpt of these results, as tab-separated lines:
row	Sequence	pre-steady-state target cleavage rate
3	UCCUGCUACAGCUUGCAUAGUAAAAUCAAA [g9:g25:cont:t1A]	0.000402 ± 0.014
4	UCCUGGAUCACGAUGCAUAGUAUUUAGUAA	0.00151 ± 0.0036
